Patent US20250387327A1, “DRY POWDER INHALER PHARMACEUTICAL COMPOSITION OF COATED CRYSTALLINE DRY POWDER FOR INHALATION” (HOVIONE SCIENTIA LIMITED, priority 2022, published 2025)
At least one structure is not confirmed: it was looked up by name or label, or the drawing left a doubt.

Experiment: Laser diffraction particle size distribution of the wet-milled suspension (Example 1)
Assay type: physicochemical
Conditions: suspension in water after microfluidization

Q: For `CCC(CC)COC(=O)[C@H](C)N[P@](=O)(OC[C@H]1O[C@@](C#N)(c2ccc3c(N)ncnn23)[C@H](O)[C@@H]1O)Oc1ccccc1` [Remdesivir], which Dv10 is on record?
A: Its Dv10 is 1.2 μm.

Q: What about the Dv50 of the same compound?
A: The Dv50 was 2.4 μm.

Q: What about the Dv90 of the same compound?
A: The Dv90 was 4.5 μm.
